The source of these data is paper PMC5983119.

The exact form of at least one protein or probe is not confirmed. The comparison behind a weaker result is the experiment's own reference, which may not be listed here.

This data set deals with TDP-43 F210I (RRM2mut) (mouse) (UniProt Q921F2). The data set can be described thus: EMSA. The settings on record: reduced vs WT, 5% acrylamide gel, protein 0.25-2 ug with 32P RNA in unspecified binding buffer, pH and temperature not given, recombinant protein, protein details: GST, label: 32P (gamma-32P).

As to UGUGUGUGUGUG [(UG)6 RNA], the binding result is listed as “binds more weakly”.
